Data taken from PubChem BioAssay AID2073 (Sanford-Burnham Center for Chemical Genomics, 2009).
The whole screen tested about 290,000 compounds, of which about 570 (0.2%) were called active. This list was built around the results that the source calls inconclusive (neither active nor inactive); the mix of calls is not that of the screen. Rule as the data show it: active = inhibition mostly above about 51% (no sharp cut-off); inconclusive = no clear call, values can overlap the other calls; inactive = mostly below about 53%.

The chains behind the UniProt entries cited, without tags or fusion partners.
UniProt Q00975, whole entry, looked up: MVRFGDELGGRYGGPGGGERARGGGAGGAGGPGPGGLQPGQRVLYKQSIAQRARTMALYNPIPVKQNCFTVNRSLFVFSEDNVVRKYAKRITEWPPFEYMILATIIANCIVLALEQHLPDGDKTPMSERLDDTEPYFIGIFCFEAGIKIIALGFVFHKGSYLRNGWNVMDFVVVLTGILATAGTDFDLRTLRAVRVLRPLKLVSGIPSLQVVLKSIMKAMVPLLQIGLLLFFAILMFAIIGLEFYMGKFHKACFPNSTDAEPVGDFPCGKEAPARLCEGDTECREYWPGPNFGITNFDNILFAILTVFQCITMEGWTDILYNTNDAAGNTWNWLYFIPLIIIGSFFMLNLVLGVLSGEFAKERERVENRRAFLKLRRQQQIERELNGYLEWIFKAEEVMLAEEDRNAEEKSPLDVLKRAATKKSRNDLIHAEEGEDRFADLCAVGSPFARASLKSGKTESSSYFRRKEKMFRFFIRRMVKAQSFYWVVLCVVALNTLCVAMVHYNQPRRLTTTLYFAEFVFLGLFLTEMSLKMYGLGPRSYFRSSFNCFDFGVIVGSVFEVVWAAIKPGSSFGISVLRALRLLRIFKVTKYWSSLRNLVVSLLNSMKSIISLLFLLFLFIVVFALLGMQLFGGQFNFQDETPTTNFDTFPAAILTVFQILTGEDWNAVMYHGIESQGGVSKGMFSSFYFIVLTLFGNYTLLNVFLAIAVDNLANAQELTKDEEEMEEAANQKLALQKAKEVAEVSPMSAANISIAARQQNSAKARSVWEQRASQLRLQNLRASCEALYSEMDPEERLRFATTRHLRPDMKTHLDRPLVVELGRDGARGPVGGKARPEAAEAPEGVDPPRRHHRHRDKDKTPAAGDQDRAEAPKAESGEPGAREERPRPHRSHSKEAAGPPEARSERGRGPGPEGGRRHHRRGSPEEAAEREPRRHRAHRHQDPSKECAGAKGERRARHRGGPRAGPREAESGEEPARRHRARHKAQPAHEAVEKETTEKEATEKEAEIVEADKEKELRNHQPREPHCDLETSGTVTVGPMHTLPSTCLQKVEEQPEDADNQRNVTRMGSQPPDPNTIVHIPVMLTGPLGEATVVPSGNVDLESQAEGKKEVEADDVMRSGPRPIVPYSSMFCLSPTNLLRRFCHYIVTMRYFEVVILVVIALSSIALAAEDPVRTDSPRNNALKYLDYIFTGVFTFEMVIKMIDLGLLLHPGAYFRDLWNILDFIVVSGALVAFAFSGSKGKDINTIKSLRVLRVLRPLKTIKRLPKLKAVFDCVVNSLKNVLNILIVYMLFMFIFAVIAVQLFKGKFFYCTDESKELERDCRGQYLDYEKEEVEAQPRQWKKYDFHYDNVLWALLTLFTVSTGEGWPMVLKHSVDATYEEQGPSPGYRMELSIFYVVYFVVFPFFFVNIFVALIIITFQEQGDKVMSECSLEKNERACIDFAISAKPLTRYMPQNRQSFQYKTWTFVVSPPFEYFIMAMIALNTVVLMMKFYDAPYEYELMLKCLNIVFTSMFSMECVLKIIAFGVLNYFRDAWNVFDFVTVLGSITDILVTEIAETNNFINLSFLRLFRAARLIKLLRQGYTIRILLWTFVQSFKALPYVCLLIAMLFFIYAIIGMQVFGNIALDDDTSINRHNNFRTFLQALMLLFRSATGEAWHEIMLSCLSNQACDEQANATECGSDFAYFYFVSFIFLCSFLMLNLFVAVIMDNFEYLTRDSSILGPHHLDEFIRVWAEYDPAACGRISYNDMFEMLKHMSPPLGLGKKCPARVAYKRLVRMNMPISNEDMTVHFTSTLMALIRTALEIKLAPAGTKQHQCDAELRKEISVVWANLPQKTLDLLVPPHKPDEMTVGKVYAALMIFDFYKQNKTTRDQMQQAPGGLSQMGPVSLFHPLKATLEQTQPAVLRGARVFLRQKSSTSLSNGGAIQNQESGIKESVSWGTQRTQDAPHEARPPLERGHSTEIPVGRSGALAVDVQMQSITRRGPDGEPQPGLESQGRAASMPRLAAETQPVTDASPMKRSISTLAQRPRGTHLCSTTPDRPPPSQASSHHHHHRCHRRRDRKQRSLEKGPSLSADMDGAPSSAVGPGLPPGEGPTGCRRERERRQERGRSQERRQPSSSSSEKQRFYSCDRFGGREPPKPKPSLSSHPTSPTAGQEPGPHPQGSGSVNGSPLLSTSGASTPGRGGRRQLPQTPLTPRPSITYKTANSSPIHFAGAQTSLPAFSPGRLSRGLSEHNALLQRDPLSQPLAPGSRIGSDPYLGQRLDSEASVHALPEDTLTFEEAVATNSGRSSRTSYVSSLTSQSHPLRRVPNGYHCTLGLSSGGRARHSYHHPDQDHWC

What follows are compounds tested against Voltage-dependent N-type calcium channel subunit alpha-1B (Homo sapiens) (UniProt Q00975) (assay: disruptors of CaV2.2 binding to Mint1 – biochemical, HTRF (AID 2073)). Conditions: HTRF protein-protein interaction, Mint1-CaV2.2; at 20 µM; stronger effect = higher value.

Compound	inhibition
COc1ccc(C2=CC(c3cccc(OC)c3)n3nnnc3N2)cc1 (centres undefined)	inconclusive: 71.1%
O=C(CC1NCCNC1=O)Nc1cccc([N+](=O)[O-])c1 (centres undefined)	inactive: -6.8%
Cc1sc(NC(=O)CN(Cc2ccc(F)cc2)C(=O)C(C)C)c(C(N)=O)c1C	inactive: -9.6%
CCOC(=O)/C(C#N)=C/c1cc2ccccc2nc1N1CCCCC1	inconclusive: 60.1%
Cc1ccc2c(COC(=O)c3ccc(NC(=O)CC#N)cc3)cc(=O)oc2c1C	inactive: 57.8%
Cc1ccc(C(=O)NCCSc2ccccc2)cc1S(=O)(=O)Nc1ccccc1	inactive: -1.8%
CCCN(Cc1cc2cc(C)ccc2[nH]c1=O)C(=O)c1cccc(OC)c1	inconclusive: 55.4%
O=C(O)CCCNc1cc(N2CCN(C(=O)c3ccco3)CC2)c2noc3c2c1C(=O)c1ccccc1-3	inconclusive: 67.3%
COCCSc1nnc(NC(=O)c2ccc3c(c2)OCO3)s1	inactive: 3.7%
COc1ccc(NC(=O)c2c(NC(=O)CCC(=O)O)sc3c2CCCCC3)cc1	inactive: 63.8%
CN(Cc1ccccc1)C(=O)c1ccc(Cl)c([N+](=O)[O-])c1	inconclusive: 54.8%
Cc1[nH]nc2c1C(c1ccc3c(c1)OCO3)C(C#N)=C(N)O2 (centres undefined)	inconclusive: 56.5%
Cc1ccc(-c2c[n+](CC(=O)Nc3cc(=O)n(C)c(=O)n3C)c3n2CCC3)cc1	inconclusive: 66.6%
O=C(Cc1ccc(Cl)cc1)Nc1ccc2c(c1)C(=O)NC2=O	inconclusive: 74.6%
CC(C)Oc1ccc(/C=C/C(=O)NCC2COc3ccccc3O2)cc1 (centres undefined)	inactive: -5%
CC(C)C1C(C#N)=C(N)SC(N)=C1C#N	inconclusive: 73.7%
O=C(O)C(c1ccccc1)N1C(=O)/C(=C\c2ccc(-c3ccccc3Cl)o2)SC1=S (centres undefined)	inconclusive: 55.2%
CN(CCN1CCc2ccccc2C1)Cc1nc(-c2ccc3c(c2)OCO3)no1	inactive: 2.5%
CCOc1ccc(NC(=O)NC(=O)N(C)S(=O)(=O)c2ccc(C)cc2)cc1	inactive: 8.1%
Cc1c(C#N)c(O)[nH]c(=O)c1N=Nc1ccc(S(N)(=O)=O)cc1	inactive: 1.4%
CCOc1ccc(N2CC(C(=O)Nc3c(C)n(C)n(-c4ccccc4)c3=O)CC2=O)cc1 (centres undefined)	inconclusive: 68.9%
NC(=O)C1CCCc2c1n(Cc1ccccc1)c1ccccc21 (centres undefined)	inconclusive: 65.1%

Pulled by structure from the entries so far, two records:
Compound	inhibition
CCOc1ccc(N2CC(C(=O)Nc3c(C)n(C)n(-c4ccccc4)c3=O)CC2=O)cc1 (centres undefined)	inconclusive: 68.9%
Cc1ccc(C(=O)NCCSc2ccccc2)cc1S(=O)(=O)Nc1ccccc1	inactive: -1.8%

Next entries

Compound	inhibition
Cc1csc(NC(=O)CSCC(=O)O)c1-c1nc2ccccc2s1	inconclusive: 58.2%
COc1ccc(C(=O)Oc2ccc(/C=N/NC(=O)Cc3ccc([N+](=O)[O-])cc3)cc2)cc1	inconclusive: 93.6%
O=C(NCc1nnc2c(C(F)(F)F)cc(Cl)cn12)c1ccc2c(c1)OCO2	inactive: 9%
Fc1ccc(OCCOCCNCC2CCCO2)cc1 (centres undefined)	inconclusive: 62.3%
O=C1N(Cc2cccc(Cl)c2)C[C@@H]2C[C@@H](c3cccc4cccnc34)N3CCC[C@@]123	inconclusive: 54.4%
CC1(C)Cc2c(c(N3CCCC3)nc3sc4c(N5CCN(CCO)CC5)ncnc4c23)CO1	inactive: -8.9%
CCCNC(=O)Cn1nc(C(F)(F)F)cc1C	inconclusive: 60.3%
CC(C)Nc1ccc(-n2nc3ccccc3[n+]2[O-])cc1	inconclusive: 51.2%
Cc1cccc2cc(CN(Cc3nnnn3Cc3ccccc3)C3CCCC3)c(=O)[nH]c12	inconclusive: 89.8%
O=C(Nc1ccc(Nc2ccncc2)cc1)c1ccc([N+](=O)[O-])cc1	inconclusive: 82.5%
COc1ccccc1/C=C/C1(C(=O)NC2CCCC2)CC(=O)N1c1ccc(C)cc1 (centres undefined)	inconclusive: 51.8%
CN1CCN(C(=O)CN(c2cc(C(F)(F)F)ccc2Cl)S(C)(=O)=O)CC1	inactive: -10.8%
COC(=O)c1sc(NC(=S)NNC(=O)c2c(Br)c(C)nn2C)c(C(=O)OC)c1C	inconclusive: 52.7%
COc1ccc(-c2cc(C)no2)cc1S(=O)(=O)Nc1cccc(C)c1	inconclusive: 85.2%
CCNc1c([N+](=O)[O-])ncn1C	inconclusive: 53.6%
O=c1[nH]c2cc3c(cc2cc1CN(CCc1ccccc1)Cc1nnnn1C1CCCC1)OCCO3	inconclusive: 79.3%
Cc1cc(C(=O)OC(C(=O)Nc2ccc(C)c(Cl)c2)c2ccccc2)c(C)o1 (centres undefined)	inconclusive: 62.8%
CCCCc1c(C)c(C#N)c2[nH]c3ccccc3n2c1=O	inactive: 16.9%
CCc1nn2c(=O)cc(COc3ccc(/C=C4\C(=N)N5N=C(CC(C)C)SC5=NC4=O)cc3)nc2s1	inactive: 24.6%
CC1CCN(C(=O)CCc2ccc(S(=O)(=O)NC(C)C)cc2)CC1	inactive: 28.5%
COC(=O)C1=C(C)N(Cc2ccccc2)C(=O)N[C@H]1c1ccccc1	inconclusive: 52.1%
CCN(CC)S(=O)(=O)c1cccc2cc(C(=O)O)c(O)cc12	inconclusive: 50.1%

Quoted from the listing:
Entry for `Cc1ccc2c(COC(=O)c3ccc(NC(=O)CC#N)cc3)cc(=O)oc2c1C` under inhibition: inactive: 57.8%
Entry for `COCCSc1nnc(NC(=O)c2ccc3c(c2)OCO3)s1` under inhibition: inactive: 3.7%
